Experimental data taken from publication PMC8636505.

Assays:
[1] = molecular target: T1, recombinant PAG-7 (bovine) (UniProt A7Y0Q3); assay: dot blot (ST-HRP, ECL); conditions: recombinant protein; label: biotin; single-stranded DNA
T1 sequence (looked up, limits assumed): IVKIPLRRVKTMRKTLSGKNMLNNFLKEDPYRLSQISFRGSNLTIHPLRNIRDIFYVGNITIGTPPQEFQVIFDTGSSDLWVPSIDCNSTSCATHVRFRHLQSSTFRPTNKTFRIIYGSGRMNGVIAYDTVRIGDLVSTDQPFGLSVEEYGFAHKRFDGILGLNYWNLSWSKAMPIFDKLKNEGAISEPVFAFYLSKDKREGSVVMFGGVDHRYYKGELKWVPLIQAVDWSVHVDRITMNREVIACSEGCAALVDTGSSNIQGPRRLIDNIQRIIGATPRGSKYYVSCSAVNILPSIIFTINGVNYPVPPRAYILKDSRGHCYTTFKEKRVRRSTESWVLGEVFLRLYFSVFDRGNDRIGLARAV

PAG-7 peptide (bovine) = PAG-7 peptide (bovine) (UniProt A7Y0Q3); assay: dot blot (ST-HRP, ECL/DAB); conditions: label: biotin; single-stranded DNA
PAG-18 peptide (bovine) = PAG-18 peptide (bovine) (UniProt Q9TTV6); assay: dot blot (ST-HRP, ECL/DAB); conditions: label: 5' biotin; single-stranded DNA
[2] = molecular target: T2, recombinant PAG-18 (bovine) (UniProt Q9TTV6); assay: dot blot (ST-HRP, ECL/DAB); conditions: recombinant protein; label: 5' biotin; single-stranded DNA
T2 sequence (looked up, limits assumed): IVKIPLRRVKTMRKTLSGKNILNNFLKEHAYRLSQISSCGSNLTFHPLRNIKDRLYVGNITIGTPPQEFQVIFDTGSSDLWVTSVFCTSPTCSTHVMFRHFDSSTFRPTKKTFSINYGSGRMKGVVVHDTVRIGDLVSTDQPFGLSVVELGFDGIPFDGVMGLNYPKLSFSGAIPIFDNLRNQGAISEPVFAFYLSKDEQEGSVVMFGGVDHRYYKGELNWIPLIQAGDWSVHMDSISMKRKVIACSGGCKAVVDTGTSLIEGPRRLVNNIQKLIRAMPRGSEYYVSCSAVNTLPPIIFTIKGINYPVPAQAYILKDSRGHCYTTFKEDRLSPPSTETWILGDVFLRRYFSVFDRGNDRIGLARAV

Sequence | binding result [1] | binding result (PAG-7 peptide (bovine)) | binding result (PAG-18 peptide (bovine)) | binding result [2]
TAGGGAAGAGAAGGACATATGATGCGTATTACCTAGTTTGAGTCCCATGAAACGATGCACTGGTTGACTAGTACATGACCACTTGA [PAG7_47] | binds | binds | – | –
TAGGGAAGAGAAGGACATATGATTATCATTCCTTTTAGTGGAGACACACGCATCTCGTGTGCTTTGACTAGTACATGACCACTTGA [PAG18_91] | – | – | binds | binds

For at least one entry, the source does not settle the construct or the ends of the probe. At least one verdict rests on a figure or table, not on a statement of the authors. For some of these results: Where a protein sequence is shown, tags need not be part of it.
